The supplement of paper PMC10849652
This is one part of the list.

Protein sequences, listed by entry. Tags and fused reporters are not part of them. Lines headed by an entry give the natural chain unless they say otherwise; changes in a name come on top.
UniProt Q58FG1, whole entry, looked up: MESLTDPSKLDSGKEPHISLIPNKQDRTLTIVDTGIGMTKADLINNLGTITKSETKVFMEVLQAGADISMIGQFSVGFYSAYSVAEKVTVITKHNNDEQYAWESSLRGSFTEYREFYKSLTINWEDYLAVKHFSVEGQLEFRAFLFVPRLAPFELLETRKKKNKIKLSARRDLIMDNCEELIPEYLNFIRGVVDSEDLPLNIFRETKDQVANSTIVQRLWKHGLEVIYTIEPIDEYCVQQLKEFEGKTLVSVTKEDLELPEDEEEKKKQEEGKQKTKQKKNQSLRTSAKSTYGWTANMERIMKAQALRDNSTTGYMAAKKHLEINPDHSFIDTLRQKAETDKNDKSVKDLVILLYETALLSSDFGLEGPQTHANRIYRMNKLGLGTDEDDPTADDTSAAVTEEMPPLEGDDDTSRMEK
UniProt P31943: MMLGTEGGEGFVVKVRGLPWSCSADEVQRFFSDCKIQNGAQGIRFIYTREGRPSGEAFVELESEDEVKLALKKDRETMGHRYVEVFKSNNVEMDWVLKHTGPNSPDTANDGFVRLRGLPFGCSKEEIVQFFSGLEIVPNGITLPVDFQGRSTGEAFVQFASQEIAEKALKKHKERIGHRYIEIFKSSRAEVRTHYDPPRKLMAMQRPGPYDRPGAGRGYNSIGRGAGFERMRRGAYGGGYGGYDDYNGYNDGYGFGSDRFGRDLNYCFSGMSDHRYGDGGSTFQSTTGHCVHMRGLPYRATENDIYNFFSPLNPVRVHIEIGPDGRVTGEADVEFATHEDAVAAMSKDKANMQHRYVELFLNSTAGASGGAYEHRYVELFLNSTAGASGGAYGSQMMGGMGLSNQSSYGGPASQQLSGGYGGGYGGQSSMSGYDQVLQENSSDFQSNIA
UniProt O94992, whole entry, looked up: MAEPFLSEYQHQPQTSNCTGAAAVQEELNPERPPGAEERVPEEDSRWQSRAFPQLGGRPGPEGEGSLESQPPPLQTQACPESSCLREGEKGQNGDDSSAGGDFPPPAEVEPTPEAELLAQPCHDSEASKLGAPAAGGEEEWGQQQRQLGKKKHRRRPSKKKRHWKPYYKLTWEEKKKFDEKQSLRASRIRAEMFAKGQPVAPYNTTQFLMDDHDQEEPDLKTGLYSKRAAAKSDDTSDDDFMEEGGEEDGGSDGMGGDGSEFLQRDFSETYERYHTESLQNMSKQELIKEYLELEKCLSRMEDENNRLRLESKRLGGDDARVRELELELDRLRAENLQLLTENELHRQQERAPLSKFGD
UniProt Q9NWT6: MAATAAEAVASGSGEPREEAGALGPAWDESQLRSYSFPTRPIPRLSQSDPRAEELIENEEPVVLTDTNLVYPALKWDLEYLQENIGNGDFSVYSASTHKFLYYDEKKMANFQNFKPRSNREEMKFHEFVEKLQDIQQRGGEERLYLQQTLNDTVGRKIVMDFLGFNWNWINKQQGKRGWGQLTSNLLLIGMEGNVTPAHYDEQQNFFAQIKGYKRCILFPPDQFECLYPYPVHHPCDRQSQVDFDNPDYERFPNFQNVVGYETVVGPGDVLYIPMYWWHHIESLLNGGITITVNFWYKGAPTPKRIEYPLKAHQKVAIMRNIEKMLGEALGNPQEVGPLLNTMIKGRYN
UniProt Q9BTY7: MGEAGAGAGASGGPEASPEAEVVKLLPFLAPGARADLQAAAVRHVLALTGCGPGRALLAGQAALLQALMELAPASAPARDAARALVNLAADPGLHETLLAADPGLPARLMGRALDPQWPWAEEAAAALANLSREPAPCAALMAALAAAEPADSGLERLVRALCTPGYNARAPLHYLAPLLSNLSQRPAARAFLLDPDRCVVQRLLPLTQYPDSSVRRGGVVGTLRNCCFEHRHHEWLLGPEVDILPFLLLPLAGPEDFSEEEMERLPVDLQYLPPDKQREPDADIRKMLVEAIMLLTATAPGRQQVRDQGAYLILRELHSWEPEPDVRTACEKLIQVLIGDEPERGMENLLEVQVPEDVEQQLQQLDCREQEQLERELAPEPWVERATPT
UniProt P0DMV8, whole entry, looked up: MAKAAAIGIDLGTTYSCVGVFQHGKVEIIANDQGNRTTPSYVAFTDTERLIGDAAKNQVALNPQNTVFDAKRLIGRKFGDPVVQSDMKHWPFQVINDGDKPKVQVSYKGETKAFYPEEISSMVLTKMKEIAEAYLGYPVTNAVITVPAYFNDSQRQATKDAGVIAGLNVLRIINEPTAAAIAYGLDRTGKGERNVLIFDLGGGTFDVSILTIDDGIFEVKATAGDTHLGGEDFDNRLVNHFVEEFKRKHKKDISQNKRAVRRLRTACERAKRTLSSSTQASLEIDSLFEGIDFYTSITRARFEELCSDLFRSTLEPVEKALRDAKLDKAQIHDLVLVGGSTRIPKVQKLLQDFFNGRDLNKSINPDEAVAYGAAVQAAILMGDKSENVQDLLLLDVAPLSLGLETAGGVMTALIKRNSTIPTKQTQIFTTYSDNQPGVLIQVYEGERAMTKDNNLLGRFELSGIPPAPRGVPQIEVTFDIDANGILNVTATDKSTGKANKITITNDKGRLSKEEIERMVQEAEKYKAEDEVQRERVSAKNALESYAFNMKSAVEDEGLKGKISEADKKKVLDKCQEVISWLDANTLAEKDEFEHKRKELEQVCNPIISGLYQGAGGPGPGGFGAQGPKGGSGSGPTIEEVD
UniProt Q13151: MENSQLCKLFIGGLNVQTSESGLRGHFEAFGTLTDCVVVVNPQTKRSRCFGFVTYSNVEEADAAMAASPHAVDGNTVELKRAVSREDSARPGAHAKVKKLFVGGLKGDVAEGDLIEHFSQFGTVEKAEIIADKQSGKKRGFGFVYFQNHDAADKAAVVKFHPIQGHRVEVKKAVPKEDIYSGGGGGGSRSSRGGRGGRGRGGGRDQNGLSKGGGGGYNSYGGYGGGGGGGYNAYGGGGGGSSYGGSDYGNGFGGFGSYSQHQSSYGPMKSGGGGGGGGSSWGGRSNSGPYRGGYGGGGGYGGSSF
UniProt O14964, whole entry, looked up: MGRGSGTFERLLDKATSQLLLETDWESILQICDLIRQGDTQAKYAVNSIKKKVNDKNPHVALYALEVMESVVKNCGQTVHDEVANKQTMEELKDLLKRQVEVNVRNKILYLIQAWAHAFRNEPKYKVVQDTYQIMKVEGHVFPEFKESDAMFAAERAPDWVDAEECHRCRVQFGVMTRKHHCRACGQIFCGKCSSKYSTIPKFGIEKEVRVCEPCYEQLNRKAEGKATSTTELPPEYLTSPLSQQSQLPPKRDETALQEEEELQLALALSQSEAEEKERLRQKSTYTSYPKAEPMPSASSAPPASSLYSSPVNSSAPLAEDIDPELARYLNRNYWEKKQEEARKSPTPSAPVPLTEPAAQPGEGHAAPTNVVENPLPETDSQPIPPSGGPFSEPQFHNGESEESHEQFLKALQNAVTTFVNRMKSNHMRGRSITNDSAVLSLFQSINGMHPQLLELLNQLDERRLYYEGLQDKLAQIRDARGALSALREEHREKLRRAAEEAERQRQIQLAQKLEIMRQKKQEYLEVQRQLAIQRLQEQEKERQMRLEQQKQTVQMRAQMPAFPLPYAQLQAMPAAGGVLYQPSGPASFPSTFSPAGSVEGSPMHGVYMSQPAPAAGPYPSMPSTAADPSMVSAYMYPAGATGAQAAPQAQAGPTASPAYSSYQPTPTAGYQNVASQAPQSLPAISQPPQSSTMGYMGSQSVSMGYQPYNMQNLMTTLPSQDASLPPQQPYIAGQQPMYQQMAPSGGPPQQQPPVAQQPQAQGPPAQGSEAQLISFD
UniProt P35914: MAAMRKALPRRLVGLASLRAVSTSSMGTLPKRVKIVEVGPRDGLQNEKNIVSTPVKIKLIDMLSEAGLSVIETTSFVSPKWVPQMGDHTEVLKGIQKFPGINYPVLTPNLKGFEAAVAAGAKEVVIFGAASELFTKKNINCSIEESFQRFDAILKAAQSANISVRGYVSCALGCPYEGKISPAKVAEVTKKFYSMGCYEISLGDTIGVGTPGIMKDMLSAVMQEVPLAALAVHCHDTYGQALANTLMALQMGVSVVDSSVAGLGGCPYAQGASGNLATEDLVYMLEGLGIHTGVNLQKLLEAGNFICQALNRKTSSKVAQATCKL
UniProt Q58FF7, whole entry, looked up: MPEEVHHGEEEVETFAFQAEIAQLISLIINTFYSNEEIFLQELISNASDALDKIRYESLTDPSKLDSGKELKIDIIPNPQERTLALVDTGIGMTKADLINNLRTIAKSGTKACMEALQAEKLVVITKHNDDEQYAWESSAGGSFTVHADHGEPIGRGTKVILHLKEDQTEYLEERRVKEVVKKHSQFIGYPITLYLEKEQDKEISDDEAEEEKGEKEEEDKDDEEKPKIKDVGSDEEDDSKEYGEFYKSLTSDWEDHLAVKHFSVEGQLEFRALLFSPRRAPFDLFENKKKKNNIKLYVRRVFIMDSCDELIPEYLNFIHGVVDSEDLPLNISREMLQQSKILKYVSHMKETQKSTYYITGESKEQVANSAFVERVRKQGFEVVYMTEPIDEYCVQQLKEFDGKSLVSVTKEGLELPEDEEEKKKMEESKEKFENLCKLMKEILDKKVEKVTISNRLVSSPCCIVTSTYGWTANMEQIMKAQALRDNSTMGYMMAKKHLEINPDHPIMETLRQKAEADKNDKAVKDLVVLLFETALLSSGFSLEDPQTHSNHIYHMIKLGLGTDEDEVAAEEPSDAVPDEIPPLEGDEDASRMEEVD
UniProt P19367: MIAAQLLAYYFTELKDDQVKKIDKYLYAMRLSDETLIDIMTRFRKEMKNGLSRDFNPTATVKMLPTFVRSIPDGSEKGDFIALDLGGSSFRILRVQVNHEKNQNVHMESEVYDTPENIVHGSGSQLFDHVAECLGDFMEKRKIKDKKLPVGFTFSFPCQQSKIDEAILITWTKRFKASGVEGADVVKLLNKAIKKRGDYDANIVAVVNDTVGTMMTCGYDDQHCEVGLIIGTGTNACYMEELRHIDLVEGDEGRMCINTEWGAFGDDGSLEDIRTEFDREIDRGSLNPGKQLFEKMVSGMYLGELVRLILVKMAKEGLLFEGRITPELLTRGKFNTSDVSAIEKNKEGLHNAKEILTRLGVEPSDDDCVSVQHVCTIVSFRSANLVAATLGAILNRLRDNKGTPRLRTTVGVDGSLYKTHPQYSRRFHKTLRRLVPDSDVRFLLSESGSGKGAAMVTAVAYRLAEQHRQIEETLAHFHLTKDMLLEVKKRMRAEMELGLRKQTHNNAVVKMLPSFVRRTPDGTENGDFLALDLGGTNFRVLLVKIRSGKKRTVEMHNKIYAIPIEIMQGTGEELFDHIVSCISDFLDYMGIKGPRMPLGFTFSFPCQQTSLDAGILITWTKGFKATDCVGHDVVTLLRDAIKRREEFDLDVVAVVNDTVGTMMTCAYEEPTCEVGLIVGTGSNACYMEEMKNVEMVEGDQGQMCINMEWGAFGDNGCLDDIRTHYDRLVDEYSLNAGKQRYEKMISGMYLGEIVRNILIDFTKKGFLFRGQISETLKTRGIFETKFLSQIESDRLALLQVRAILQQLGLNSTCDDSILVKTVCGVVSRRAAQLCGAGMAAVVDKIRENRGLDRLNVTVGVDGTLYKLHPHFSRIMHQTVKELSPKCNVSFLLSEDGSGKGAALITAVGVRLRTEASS
UniProt Q14527: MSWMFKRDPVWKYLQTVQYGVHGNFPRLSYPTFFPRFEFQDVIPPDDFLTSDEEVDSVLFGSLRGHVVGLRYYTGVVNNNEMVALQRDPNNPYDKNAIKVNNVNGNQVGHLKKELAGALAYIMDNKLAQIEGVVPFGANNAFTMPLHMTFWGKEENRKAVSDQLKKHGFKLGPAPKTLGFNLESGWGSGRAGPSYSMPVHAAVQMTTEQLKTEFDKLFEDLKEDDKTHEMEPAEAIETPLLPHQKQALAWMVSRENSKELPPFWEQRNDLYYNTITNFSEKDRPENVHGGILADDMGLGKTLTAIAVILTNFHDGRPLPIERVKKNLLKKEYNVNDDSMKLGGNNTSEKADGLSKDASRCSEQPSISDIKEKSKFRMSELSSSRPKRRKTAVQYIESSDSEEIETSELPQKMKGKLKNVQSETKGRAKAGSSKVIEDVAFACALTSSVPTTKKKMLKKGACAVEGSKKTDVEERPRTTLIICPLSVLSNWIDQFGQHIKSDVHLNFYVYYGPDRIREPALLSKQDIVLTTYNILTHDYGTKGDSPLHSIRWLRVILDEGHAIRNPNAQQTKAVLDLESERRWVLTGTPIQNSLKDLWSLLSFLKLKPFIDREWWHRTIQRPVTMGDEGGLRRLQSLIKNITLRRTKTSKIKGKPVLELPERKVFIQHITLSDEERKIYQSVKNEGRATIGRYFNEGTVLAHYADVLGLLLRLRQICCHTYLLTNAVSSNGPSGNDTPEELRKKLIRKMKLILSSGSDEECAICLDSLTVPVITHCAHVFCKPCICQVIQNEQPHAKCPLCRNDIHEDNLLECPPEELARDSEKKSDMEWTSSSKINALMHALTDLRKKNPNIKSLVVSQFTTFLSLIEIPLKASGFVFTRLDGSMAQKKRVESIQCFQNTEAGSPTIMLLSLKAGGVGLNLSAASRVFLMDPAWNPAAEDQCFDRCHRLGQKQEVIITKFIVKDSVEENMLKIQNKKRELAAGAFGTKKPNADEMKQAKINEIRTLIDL

Experiments:
Experiment in all cases: log2 fold change, soluble protein after heating vs DMSO (PISA); higher = thermal stabilisation; K562 lysate, 10 uM; active = over 0.2 and 3.5 SD of the protein, either way, in both replicates (recomputed)
erlotinib = compound: C#Cc1cccc(Nc2ncnc3cc(OCCOC)c(OCCOC)cc23)c1 [erlotinib]
Summary of the method: (§1)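 Pellets of K562 cells were dounce-homogenised in PBS pH 7.4 with 1 mM MgCl2, and the crude extract was held at 1 mg/mL protein for a 30 min treatment with 10 μM compound. Aliquots were heated for 3 min over 48°C-58°C and pooled before NP-40 was added to 0.5% at 4°C. The supernatant from 21,000xg for 90 min was quantified by TMTpro 16plex LC-MS/MS with channel sums equalised. Values are reported from duplicates as log-two fold change in thermal stability relative to solvent controls.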

[1] = compound: C/C(=N\NC(=O)C1=CC(=CC=C1)S(=O)(=O)N2CCOCC2)/C3=C(C=CC(=C3)Cl)O
Summary of the method: as §1

[2] = compound: C1=CC(=CC=C1C2=NC3=C(N2)C=C(C=C3)C(=O)N)OC4=CC=C(C=C4)Cl
Summary of the method: as §1

[3] = compound: C1=CC2=C(C=CC(=C2)/C=C\3/C(=O)NC(=NCC4=CC=CS4)S3)N=C1
Summary of the method: as §1

[4] = compound: C1=CC2=NC=CN=C2C=C1/C=C/3\C(=O)NC(=O)S3
Summary of the method: as §1

[5] = compound: C1=CC=C(C=C1)C2=NC(=C(N2)C3=CC=NC=C3)C4=CC(=C(C=C4)Cl)O
Summary of the method: as §1

[6] = compound: C1=CC=C2C(=C1)C3=NNC4=CC=CC(=C43)C2=O
Summary of the method: as §1

[7] = compound: C1CCN(C1)C(=O)NC2=CC=CC(=C2)NC3=NC=C(C(=N3)NCCC4=CN=CN4)Br
Summary of the method: as §1

[8] = compound: C1CN(CCC1(CC2=CC=C(C=C2)Cl)N)C3=NC=NC4=C3C=CN4
Summary of the method: as §1

IRAK-1-4 Inhibitor I = compound: C1COCCN1CCN2C3=CC=CC=C3N=C2NC(=O)C4=CC(=CC=C4)[N+](=O)[O-] [IRAK-1-4 Inhibitor I]
Summary of the method: as §1

Measured: log2 fold change

HMGN5 (UniProt P82970)
inactive: erlotinib 0.013 | [1] -0.122 | [2] 0.052 | [3] 0.021 | [4] -0.002 | [5] -0.013 | [6] 0.024 | [7] 0.067 | [8] 0.024 | IRAK-1-4 Inhibitor I 0.007

HSP90AA4P (UniProt Q58FG1)
inactive: erlotinib -0.064 | [1] 0.994 | [2] 0.097 | [3] 0.018 | [4] -0.129 | [5] 0.023 | [6] -0.003 | [7] -0.032 | [8] -0.09 | IRAK-1-4 Inhibitor I 0.081

HECTD3 (UniProt Q5T447)
inactive: erlotinib 0.027 | [1] 0 | [2] -0.005 | [3] 0.008 | [4] 0.022 | [5] 0.018 | [6] -0.008 | [7] -0.028 | [8] -0.026 | IRAK-1-4 Inhibitor I 0.008

HMGB2 (UniProt P26583)
inactive: erlotinib -0.007 | [1] 0.039 | [2] 0.007 | [3] 0.008 | [4] -0.017 | [5] 0.046 | [6] 0.013 | [7] 0.014 | [8] -0.008 | IRAK-1-4 Inhibitor I -0.026

HNRNPH1 (UniProt P31943)
inactive: erlotinib 0.005 | [1] -0.055 | [2] 0.014 | [3] 0.035 | [4] 0.016 | [5] 0.044 | [6] -0.003 | [7] -0.003 | [8] -0.008 | IRAK-1-4 Inhibitor I 0.019

HEXIM1 (UniProt O94992)
inactive: erlotinib -0.042 | [1] -0.049 | [2] 0.03 | [3] -0.019 | [4] -0.036 | [5] -0.015 | [6] -0.016 | [7] -0.021 | [8] -0.008 | IRAK-1-4 Inhibitor I 0.034

HECTD4 (UniProt J3KPF0)
inactive: erlotinib 0.076 | [1] -0.002 | [2] 0.035 | [3] -0.125 | [4] -0.02 | [5] 0.024 | [6] -0.055 | [7] -0.027 | [8] 0.01 | IRAK-1-4 Inhibitor I -0.009

HMGA1 (UniProt P17096)
inactive: erlotinib -0.037 | [1] -0.053 | [2] -0.001 | [3] -0.026 | [4] -0.053 | [5] -0.007 | [6] 0.026 | [7] 0.036 | [8] 0.013 | IRAK-1-4 Inhibitor I -0.022

HPRT1 (UniProt P00492)
inactive: erlotinib -0.038 | [1] -0.096 | [2] -0.003 | [3] -0.022 | [4] -0.012 | [5] -0.014 | [6] -0.032 | [7] 0.002 | [8] -0.006 | IRAK-1-4 Inhibitor I -0.016

HNRNPH2 (UniProt P55795)
inactive: erlotinib -0.035 | [1] 0.112 | [2] 0.028 | [3] -0.047 | [4] 0.02 | [5] 0.038 | [6] -0.015 | [7] 0.01 | [8] -0.013 | IRAK-1-4 Inhibitor I 0

HIF1AN (UniProt Q9NWT6)
inactive: erlotinib -0.013 | [1] -0.022 | [2] 0.026 | [3] -0.031 | [4] -0.026 | [5] 0.002 | [6] 0.014 | [7] -0.037 | [8] 0.048 | IRAK-1-4 Inhibitor I -0.116

HSPA1L (UniProt P34931)
inactive: erlotinib 0.073 | [1] 0.049 | [2] -0.014 | [3] -0.026 | [4] 0.022 | [5] 0.025 | [6] 0.115 | [7] 0.012 | [8] -0.053 | IRAK-1-4 Inhibitor I 0.114

Quoted from above (7 entries):
HNRNPH1 (UniProt P31943)
inactive: erlotinib 0.005 | [1] -0.055 | [2] 0.014 | [3] 0.035 | [4] 0.016 | [5] 0.044 | [6] -0.003 | [7] -0.003 | [8] -0.008 | IRAK-1-4 Inhibitor I 0.019

HEXIM1 (UniProt O94992)
inactive: erlotinib -0.042 | [1] -0.049 | [2] 0.03 | [3] -0.019 | [4] -0.036 | [5] -0.015 | [6] -0.016 | [7] -0.021 | [8] -0.008 | IRAK-1-4 Inhibitor I 0.034

HECTD4 (UniProt J3KPF0)
inactive: erlotinib 0.076 | [1] -0.002 | [2] 0.035 | [3] -0.125 | [4] -0.02 | [5] 0.024 | [6] -0.055 | [7] -0.027 | [8] 0.01 | IRAK-1-4 Inhibitor I -0.009

HMGA1 (UniProt P17096)
inactive: erlotinib -0.037 | [1] -0.053 | [2] -0.001 | [3] -0.026 | [4] -0.053 | [5] -0.007 | [6] 0.026 | [7] 0.036 | [8] 0.013 | IRAK-1-4 Inhibitor I -0.022

HPRT1 (UniProt P00492)
inactive: erlotinib -0.038 | [1] -0.096 | [2] -0.003 | [3] -0.022 | [4] -0.012 | [5] -0.014 | [6] -0.032 | [7] 0.002 | [8] -0.006 | IRAK-1-4 Inhibitor I -0.016

HNRNPH2 (UniProt P55795)
inactive: erlotinib -0.035 | [1] 0.112 | [2] 0.028 | [3] -0.047 | [4] 0.02 | [5] 0.038 | [6] -0.015 | [7] 0.01 | [8] -0.013 | IRAK-1-4 Inhibitor I 0

HIF1AN (UniProt Q9NWT6)
inactive: erlotinib -0.013 | [1] -0.022 | [2] 0.026 | [3] -0.031 | [4] -0.026 | [5] 0.002 | [6] 0.014 | [7] -0.037 | [8] 0.048 | IRAK-1-4 Inhibitor I -0.116

(further entries)

HLCS (UniProt P50747)
inactive: erlotinib 0.019 | [1] -0.071 | [2] 0.013 | [3] 0.03 | [4] -0.017 | [5] -0.004 | [6] -0.019 | [7] 0.008 | [8] -0.034 | IRAK-1-4 Inhibitor I -0.008

HGH1 (UniProt Q9BTY7)
inactive: erlotinib 0.031 | [1] 0.051 | [2] -0.095 | [3] -0.002 | [4] 0.006 | [5] 0.017 | [6] -0.064 | [7] -0.047 | [8] 0.028 | IRAK-1-4 Inhibitor I -0.021

HSPA4 (UniProt P34932)
inactive: erlotinib -0.023 | [1] 0.012 | [2] 0.005 | [3] -0.007 | [4] -0.01 | [5] -0.003 | [6] -0.013 | [7] 0.007 | [8] -0.002 | IRAK-1-4 Inhibitor I -0.018

HSPA1A (UniProt P0DMV8)
inactive: erlotinib -0.022 | [1] 0.022 | [2] 0.03 | [3] -0.004 | [4] -0.03 | [5] 0.002 | [6] 0.016 | [7] -0.005 | [8] -0.038 | IRAK-1-4 Inhibitor I -0.003

HOXB9 (UniProt P17482)
inactive: erlotinib 0.028 | [1] -0.022 | [2] 0.098 | [3] 0.025 | [4] -0.2 | [5] -0.116 | [6] 0.025 | [7] -0.109 | [8] 0.033 | IRAK-1-4 Inhibitor I 0

HPF1 (UniProt Q9NWY4)
inactive: erlotinib 0.04 | [1] 0.051 | [2] -0.06 | [3] 0.035 | [4] 0.037 | [5] 0.022 | [6] -0.058 | [7] 0.002 | [8] 0.026 | IRAK-1-4 Inhibitor I -0.011

HEXA (UniProt P06865)
inactive: erlotinib -0.01 | [1] -0.026 | [2] 0 | [3] -0.013 | [4] -0.02 | [5] -0.003 | [6] 0 | [7] -0.004 | [8] 0.033 | IRAK-1-4 Inhibitor I 0.015

HNRNPA0 (UniProt Q13151)
inactive: erlotinib 0.017 | [1] 0.186 | [2] -0.06 | [3] -0.072 | [4] 0.036 | [5] -0.011 | [6] 0.074 | [7] 0.066 | [8] 0.088 | IRAK-1-4 Inhibitor I -0.011

HMG20A (UniProt Q9NP66)
inactive: erlotinib -0.009 | [1] 0.039 | [2] 0.053 | [3] -0.036 | [4] -0.003 | [5] -0.073 | [6] 0.003 | [7] 0 | [8] 0.016 | IRAK-1-4 Inhibitor I 0.043

HEBP2 (UniProt Q9Y5Z4)
inactive: erlotinib -0.008 | [1] 0.071 | [2] 0.024 | [3] -0.008 | [4] -0.036 | [5] -0.009 | [6] -0.047 | [7] 0.012 | [8] -0.008 | IRAK-1-4 Inhibitor I -0.001

HSP90AA1 isoform 2 (UniProt P07900)
inactive: erlotinib -0.006 | [1] 0.02 | [2] 0.006 | [3] 0.012 | [4] -0.014 | [5] 0.004 | [6] 0.077 | [7] 0.006 | [8] 0.008 | IRAK-1-4 Inhibitor I -0.008

HGS (UniProt O14964)
inactive: erlotinib 0.016 | [1] -0.004 | [2] 0.022 | [3] -0.034 | [4] -0.009 | [5] -0.006 | [6] -0.018 | [7] -0.019 | [8] 0.006 | IRAK-1-4 Inhibitor I -0.001

HMGCL (UniProt P35914)
inactive: erlotinib 0.002 | [1] -0.089 | [2] 0.032 | [3] -0.016 | [4] -0.047 | [5] -0.005 | [6] -0.035 | [7] 0.005 | [8] 0.008 | IRAK-1-4 Inhibitor I 0.024

HPCAL1 (UniProt P37235)
inactive: erlotinib -0.037 | [1] -0.001 | [2] -0.012 | [3] -0.029 | [4] 0.004 | [5] -0.018 | [6] 0.003 | [7] 0.03 | [8] -0.023 | IRAK-1-4 Inhibitor I 0

HEMGN (UniProt Q9BXL5)
inactive: erlotinib -0.008 | [1] 0.025 | [2] 0.01 | [3] 0.001 | [4] -0.023 | [5] 0.01 | [6] 0.056 | [7] 0.01 | [8] -0.002 | IRAK-1-4 Inhibitor I -0.008

HSP90AB3P (UniProt Q58FF7)
inactive: erlotinib -0.031 | [1] -0.011 | [2] -0.027 | [3] 0 | [4] -0.008 | [5] 0.018 | [6] 0.012 | [7] -0.062 | [8] 0 | IRAK-1-4 Inhibitor I 0.033

HK1 isoform 2 (UniProt P19367)
inactive: erlotinib -0.027 | [1] -0.006 | [2] 0.009 | [3] 0.006 | [4] 0.007 | [5] 0.007 | [6] -0.006 | [7] 0.001 | [8] 0.014 | IRAK-1-4 Inhibitor I -0.002

HLTF (UniProt Q14527)
inactive: erlotinib 0.052 | [1] -0.019 | [2] 0.081 | [3] -0.003 | [4] -0.032 | [5] -0.028 | [6] 0.008 | [7] -0.053 | [8] 0.015 | IRAK-1-4 Inhibitor I -0.019
